# Laboratory results taken from publication PMC9822066 (Molecules, 2022).
# System: mice
# Test: Passive Avoidance Test, scopolamine-induced amnesia
# Type: in vivo
# Set-up: unit not given here
# Settings: scopolamine 1 mg/kg s.c. alone; mean ± SEM
smiles,measurement,value
"CN1[C@@H]2C[C@@H](OC(=O)[C@H](CO)c3ccccc3)C[C@H]1[C@@H]1O[C@@H]12 [scopolamine, reference compound]",latency time in the retention trial,22.71 ± 7.56
